## Percent effect of library compounds

The chains behind the UniProt entries cited, without tags or fusion partners. Residues count along the entry.
UniProt Q8IDJ8, 1-583: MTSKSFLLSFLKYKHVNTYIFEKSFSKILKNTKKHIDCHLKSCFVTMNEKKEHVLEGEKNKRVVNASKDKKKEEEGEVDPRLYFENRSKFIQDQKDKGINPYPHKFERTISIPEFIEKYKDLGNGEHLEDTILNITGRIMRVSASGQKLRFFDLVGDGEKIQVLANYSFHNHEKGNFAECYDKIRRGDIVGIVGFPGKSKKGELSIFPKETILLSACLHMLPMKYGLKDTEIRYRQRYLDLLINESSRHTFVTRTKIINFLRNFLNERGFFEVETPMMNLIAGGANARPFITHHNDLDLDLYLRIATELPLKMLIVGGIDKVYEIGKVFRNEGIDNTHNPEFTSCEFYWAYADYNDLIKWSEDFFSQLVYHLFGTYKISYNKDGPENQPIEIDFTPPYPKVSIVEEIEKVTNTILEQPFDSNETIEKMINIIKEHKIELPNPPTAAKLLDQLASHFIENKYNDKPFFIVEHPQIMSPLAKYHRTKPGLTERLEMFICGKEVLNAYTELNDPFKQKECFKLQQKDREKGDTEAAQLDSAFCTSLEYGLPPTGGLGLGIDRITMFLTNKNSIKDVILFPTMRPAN

From ChEMBL document CHEMBL3988442, “University of Dundee, Small-Polar-MMV Screening Library” (2021).

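Enzyme assay of the cytosolic lysyl-tRNA synthetase in 384-well plates, read by luminescence. Target: Lysine-tRNA ligase, Plasmodium falciparum 3D7 (UniProt Q8IDJ8). Compounds at 30 µM. Higher reads as stronger inhibition, judged from the few compounds that gave an IC50. Size under these conditions: about 69,000 compounds, about 49 of them at 50% or above in at least one test.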

Each number is a percent effect as filed.
The record does not define 0% and 100%; most values in the screen are far below 50% and negative numbers occur (in some assays of this library far below -100).
Compounds were drawn at random from those tested, without regard to their results.

Result for COc1nn(C)cc1C(=O)N1CCC(c2nnc(-c3ccsc3)o2)CC1 was 1.739%. CCN(CC)c1nc(O)cc(C(C)n2ncc3ccccc3c2=O)n1 (centres undefined) gave -0.1281%. Result for CSC1(CNc2ncc(Br)cn2)CCOCC1 was 0.9245%. With CCOCC(=O)NCC(Cc1cccc(F)c1)N1CCCCC1=O (centres undefined) the screen gave 3.7%. Cc1cc(=O)[nH]cc1C(=O)N1Cc2ccccc2N(C)CC1C (centres undefined) read -1.859%. Cc1noc(C)c1C(=O)NCc1cc[nH]n1 gave 1.403%. CC(=O)N1CCCN(Cc2cc(F)cc(Br)c2)CC1 gave 2.266%.

CC(C)n1nc2c(cc1=O)CN(CCOc1cccc(C#N)c1)CC2 gave 4.296%. CC(C)N1CCC(c2cnc(-c3cncnc3)cn2)CC1 read 0.2547%. With COc1cc(C(C)=O)ccc1OCC(=O)N(C)Cc1cnn(C)c1 the screen gave 7.971%. For COc1ccc(CC(=O)NCCCc2nnc3nc(C)cc(C)n23)cc1 the result was -3.586%. For CCN1CC(C(=O)N2CCC(Oc3ccccc3Cl)CC2)CC1=O (centres undefined) the result was -5.683%. For Cc1nc(-c2ccncc2)ncc1C(C)NC(=O)CN1CCOC1=O (centres undefined) the result was 0.3364%. For COc1ccc(NC(=O)N2CCC(c3nnc[nH]3)CC2)cc1C the result was -2.115%.

Cc1cc(N2CCN(C(=O)CCc3scnc3C)CC2)cc(C)n1 gave -4.275%. CSCc1noc(CN2CC(Cc3ccccc3)CC2=O)n1 (centres undefined) read 3.989%. Cc1nc(O)cc(CCNC(=O)CN2CCCCCC2)n1 gave 1.619%. Result for Cc1cnn(CC(C)NCc2ccc(-n3cccn3)cc2)c1 (centres undefined) was -8.033%. With Cc1cccc(CN2CCC3(CC2)CC(c2cccnc2)C(=O)N3C)n1 (centres undefined) the screen gave 1.799%. With Cn1cnnc1CNC(=O)C1CCCN(Cc2ccccc2)C1 (centres undefined) the screen gave 4.064%. CC(C#N)CN(C)C(=O)CCNC(=O)OC(C)(C)C (centres undefined) gave 0.5619%.

CC(C)c1nc(C2CCCN2CC(=O)Nc2nncs2)no1 (centres undefined) read 3.075%. Result for CCNS(=O)(=O)C1CCN(C(=O)c2ccc(F)cc2)C1 (centres undefined) was 5.466%. For CCNS(=O)(=O)c1ccc2c(c1)c(=O)n(CC)c(=O)n2CC the result was 6.063%. Result for CNS(=O)(=O)CC1CCCN1c1ccc(Br)cn1 (centres undefined) was 0.9383%. O=C(NCCn1ccnc1)c1cccc(Br)c1 read 0.8074%. For CNC(=O)C1CCN(c2ncc3c(n2)CCN3c2ccccc2)C1 (centres undefined) the result was 6.172%. CN(CCc1noc(C2CC2)n1)C(=O)C1(N2CCCC2)CCCC1 gave 1.177%.

COCC(NC1CCN(CC(C)C)CC1)c1ccnn1C (centres undefined) gave 1.078%. O=C([C@H]1C[C@H]2OCC[C@H]2N(Cc2ccoc2)C1)N1CCCO1 gave -2.461%. Result for CCOCCCC(=O)N(C)C(c1cccc(F)c1)c1ccccn1 (centres undefined) was 4.44%. CCOc1cccc(NC(=O)c2cscn2)n1 read 0.9691%. With c1cnc(N2CCO[C@H]3CN(Cc4cc[nH]n4)C[C@H]32)cn1 the screen gave 2.761%. For CCC(C)(C)NC(=O)c1nnn(-c2cccc3c2CCN(C)C3)c1C the result was 9.012%. For COCCN1C(=O)CC(c2cccnc2)C12CCN(C(=O)C1CC1)CC2 (centres undefined) the result was 5.003%.

CCc1nc(C)sc1CN1C[C@@H](C)[C@@](C)(O)C1 gave -4.908%. With CC(C)(C)n1ncc(NCCc2ccccc2C(F)(F)F)c(Cl)c1=O the screen gave 0.8917%. COc1ccc(C2CCCN2c2ccc(C#N)cn2)c(OC)c1 (centres undefined) read 1.473%. CN(C)c1ccnc(N2CCC(NCCOc3ccccc3)CC2)n1 read -0.2885%. Result for CCS(=O)(=O)CC(=O)NC1(c2ccc(Cl)c(Cl)c2)CC1 was 4.557%. With O=C(NCc1ccc(Cl)cc1)C1=NOC2(CCNC2)C1 (centres undefined) the screen gave 3.627%. With COCCN1C[C@@H](C)[C@@]2(COCCN(C(=O)c3cccc(C)n3)C2)C1 the screen gave 2.494%.

O=C(c1ccco1)N1CCO[C@@H]2CN(Cc3nccs3)CC[C@@H]2C1 gave 3.324%. With COC(=O)CCC(=O)N1CCC2(CN(Cc3ccccc3F)C2)C1 the screen gave 1.019%. With COCC1CN(C(=O)c2ccco2)Cc2cn(C)nc21 (centres undefined) the screen gave -2.836%. For O=C1[C@@H]2CN(c3ncnc4sccc34)C[C@]2(C(=O)O)CN1CC1CC1 the result was -1.937%. Result for COc1c(C2CCCN2C(=O)c2ccc3c(c2)OCO3)c(C)nn1C (centres undefined) was 0.6469%. COCCN1CCN(Cc2ccc(OCc3nccn3C)cc2)CC1 read 0.4379%. For COc1ccc(CNCCc2cccc(C(N)=O)c2)cc1C the result was 0.3653%.

For CC(=O)N1CCCC1c1cc(Nc2nnc(C)s2)nc(C)n1 (centres undefined) the result was -2.852%. For CCSc1ccc(C(=O)N2CCCCC2C(=O)NC(C)(C)C)cn1 (centres undefined) the result was 0.6191%. Cc1noc(C)c1CN1CC2(CCN(C(=O)c3c[nH]cn3)C2)CC1=O (centres undefined) gave 9.777%. For CCCNc1ncc(-c2cc(C3CC3)nc(N)c2C#N)cn1 the result was 3.004%. For CCC(C)(CC(=O)O)NC(=O)Cc1ccccc1Br (centres undefined) the result was 3.52%. Result for CN(Cc1ccccc1-n1cccn1)c1nc(N)nc2c1CCNCC2 was 2.043%.